Some results were stated once for a whole list of compounds, not compound by compound. At least one structure is not confirmed: it was looked up by name or label, or the drawing left a doubt.
Assay: Pharmacokinetics and biodistribution of PS and its metabolites after topical administration to hind paws
Settings: after PS 8% ointment topical, normal mice
Method: PS 8% ointment was applied topically to each hind paw (50 μl per paw) with gentle rubbing. At 0.5, 1, 3, 5, 12, 18, and 24 h, mice (n=4-5 mice/time point) were euthanized with CO2 inhalation. Blood was drawn immediately after death. Tissues, including paw skin, paw muscle, leg muscle, the sciatic nerve and lumbar DRG bilaterally were dissected quickly, immediately frozen in liquid nitrogen and stored at −80° C. until analyzed.
Following addition of acetonitrile (twice the volume of the homogenate), the mixture was sonicated for 10 min, centrifuged at 13,200 rpm for 15 min, and analyzed by HPLC, as reported (Wen et al., 2019).
Since the metabolism and PK/biodistribution of PS vary depending on its route of administration, we studied both in normal mice in which PS was administered topically to their hind paws, with particular attention to the sciatic nerve and the dorsal root ganglia (DRG) that are affected in DPN.

## CC1=C(CC(=O)O)c2cc(F)ccc2/C1=C\c1ccc(S(C)(=O)=O)cc1 [sulindac sulfone]
  metabolite levels relative to those of sulindac: < 20%

From US12295963B2, “Treating pain associated with diabetic peripheral neuropathy” (MEDICON PHARMACEUTICALS, INC., priority 2021, dated 2025)
